Results of single-concentration screens

The chains behind the UniProt entries cited, without tags or fusion partners.
UniProt P9WPC5, whole entry: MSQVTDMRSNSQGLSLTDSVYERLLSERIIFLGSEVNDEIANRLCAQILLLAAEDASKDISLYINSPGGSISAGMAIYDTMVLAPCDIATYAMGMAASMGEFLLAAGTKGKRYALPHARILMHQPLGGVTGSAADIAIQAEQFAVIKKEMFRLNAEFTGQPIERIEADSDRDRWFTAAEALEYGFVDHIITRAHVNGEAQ
UniProt P9WPC3, whole entry partner: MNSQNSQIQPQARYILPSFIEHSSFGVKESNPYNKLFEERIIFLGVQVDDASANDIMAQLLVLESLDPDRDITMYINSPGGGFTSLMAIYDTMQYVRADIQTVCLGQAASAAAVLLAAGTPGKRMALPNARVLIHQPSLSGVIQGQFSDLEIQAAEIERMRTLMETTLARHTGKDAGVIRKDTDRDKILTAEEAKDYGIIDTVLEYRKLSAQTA
UniProt I6X8D2, whole entry: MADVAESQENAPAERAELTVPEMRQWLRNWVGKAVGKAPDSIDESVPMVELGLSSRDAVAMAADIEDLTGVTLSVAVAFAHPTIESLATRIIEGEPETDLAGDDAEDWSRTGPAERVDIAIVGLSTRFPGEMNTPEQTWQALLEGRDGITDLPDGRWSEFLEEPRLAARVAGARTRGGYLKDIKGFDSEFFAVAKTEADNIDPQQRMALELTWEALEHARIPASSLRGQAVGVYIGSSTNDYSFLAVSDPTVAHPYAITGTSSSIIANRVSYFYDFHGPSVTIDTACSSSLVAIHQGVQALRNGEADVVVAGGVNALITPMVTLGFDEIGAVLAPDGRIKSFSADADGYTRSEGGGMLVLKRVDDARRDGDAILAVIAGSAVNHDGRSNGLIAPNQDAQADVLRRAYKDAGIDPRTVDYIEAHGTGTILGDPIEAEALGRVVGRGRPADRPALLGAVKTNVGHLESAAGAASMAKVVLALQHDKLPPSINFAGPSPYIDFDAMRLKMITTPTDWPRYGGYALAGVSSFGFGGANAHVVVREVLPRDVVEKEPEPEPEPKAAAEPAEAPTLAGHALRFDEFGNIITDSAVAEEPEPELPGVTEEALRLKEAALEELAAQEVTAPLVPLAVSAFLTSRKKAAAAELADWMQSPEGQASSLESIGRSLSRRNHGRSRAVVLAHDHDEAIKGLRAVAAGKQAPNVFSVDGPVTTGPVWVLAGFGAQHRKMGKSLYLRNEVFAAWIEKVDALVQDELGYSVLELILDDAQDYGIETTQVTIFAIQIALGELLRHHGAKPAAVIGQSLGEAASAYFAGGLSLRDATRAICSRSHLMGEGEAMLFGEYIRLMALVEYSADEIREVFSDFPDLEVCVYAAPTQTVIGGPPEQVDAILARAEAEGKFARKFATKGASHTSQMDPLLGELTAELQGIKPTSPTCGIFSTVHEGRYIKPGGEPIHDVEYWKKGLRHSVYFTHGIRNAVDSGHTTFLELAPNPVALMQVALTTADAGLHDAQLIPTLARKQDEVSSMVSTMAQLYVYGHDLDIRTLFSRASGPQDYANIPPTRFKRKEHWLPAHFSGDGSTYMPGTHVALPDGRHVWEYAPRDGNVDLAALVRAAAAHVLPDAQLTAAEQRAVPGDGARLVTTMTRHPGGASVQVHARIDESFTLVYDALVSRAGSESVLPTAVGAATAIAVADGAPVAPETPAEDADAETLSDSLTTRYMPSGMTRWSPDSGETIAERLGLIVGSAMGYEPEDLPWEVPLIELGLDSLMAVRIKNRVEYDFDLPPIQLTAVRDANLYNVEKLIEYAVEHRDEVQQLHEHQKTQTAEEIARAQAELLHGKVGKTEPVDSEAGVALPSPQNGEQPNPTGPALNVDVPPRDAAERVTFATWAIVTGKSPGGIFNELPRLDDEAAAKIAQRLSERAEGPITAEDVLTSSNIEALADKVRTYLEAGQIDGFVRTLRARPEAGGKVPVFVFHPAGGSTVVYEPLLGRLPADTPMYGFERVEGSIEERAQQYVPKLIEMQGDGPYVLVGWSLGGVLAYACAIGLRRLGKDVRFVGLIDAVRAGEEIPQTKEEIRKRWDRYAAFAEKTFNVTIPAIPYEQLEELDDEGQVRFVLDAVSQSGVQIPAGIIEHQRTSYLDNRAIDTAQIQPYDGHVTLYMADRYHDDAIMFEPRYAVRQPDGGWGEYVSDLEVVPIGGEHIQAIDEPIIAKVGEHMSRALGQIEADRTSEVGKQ

Measurements from “University of Dundee, Small-Polar-MMV Screening Library” (2021), ChEMBL document CHEMBL3988442.

A: 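ClpP1P2, Mycobacterium tuberculosis (UniProt P9WPC5 and UniProt P9WPC3). Protease assay of ClpP1P2, read by the AMC dye that it sets free. Concentration: 50 µM. Direction is inferred from only a few compounds that gave an IC50; most scored high, so higher reads as stronger inhibition. Most other retested compounds had strongly negative values. About 69,000 compounds were tested under these conditions; 0.015% (about 10) showed 50% or more at least once.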
B: 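Enzyme assay of the thioesterase domain of polyketide synthase 13; the read-out is not stated. Target: Polyketide synthase Pks13, Mycobacterium tuberculosis (UniProt I6X8D2). Compounds at 30 µM. The record gives no direction; the compounds picked for IC50 retests had high values, so higher reads as stronger inhibition. Of about 67,000 compounds tested this way, about 300 (0.46%) reached 50% or more in at least one test.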

Values are the deposited “Percent Effect”, in %.
How 0% and 100% were set is not recorded. Most values in the screen are low, and negative values occur.
The compounds are a random part of those screened.

structure: O=C(CCCc1nc(C2CC2)no1)N1CCCC(c2ccn[nH]2)C1 (centres undefined)
A: -1.825
B: 15.93

structure: CCN1C(=O)CCCC12CCCN(C(=O)c1conc1C)C2 (centres undefined)
A: 10.92
B: -11.14

structure: CC(c1ccc(S(C)(=O)=O)cc1)N(C)C(=O)c1ccccc1I (centres undefined)
A: -5.039
B: -19.65

structure: CC(C(=O)NC1CC1)n1nc(-c2cccs2)cc(N)c1=O (centres undefined)
A: -14.53
B: -0.2233

structure: C[C@@H]1C[C@@H]2CCN(C(=O)c3cnccn3)C[C@H]2O1
A: -11.11
B: 3.328

structure: NC(=O)CCS(=O)(=O)Cc1ccc(OCC(F)(F)F)cc1
A: 1.972
B: -10.64

structure: C[C@@H]1CN(Cc2cn(C)nc2-c2ccccc2F)C[C@H](C)O1
A: -7.236
B: -4.392

structure: COc1cccc(CN2CC[C@H](c3nnc(C)o3)C2)c1
A: 6.687
B: -0.2775

structure: CCNc1nnc(SCc2nnc(C(C)(C)C)o2)s1
A: 1.271
B: -16.74

structure: CC(=O)N1CCC(c2nccnc2CNC(=O)c2cc[nH]n2)CC1
A: 5.923
B: -4.893

structure: Cc1nc(C)n(CC2CCCN2Cc2nc(-c3cccs3)no2)n1 (centres undefined)
A: 7.334
B: 0.6046

structure: CCc1nnc(CN(C)c2cc(C)nc3c(C)c(C)nn23)o1
A: -7.824
B: 5.562

structure: O=C1CCCN1CC1CN(C(=O)CC2CCCC2)Cc2nccn2C1 (centres undefined)
A: -14.94
B: -20.59

structure: CCn1nc(C)c2nc(C)nc(NC3CCCC3)c21
A: 5.749
B: -7.172

structure: COCCCn1ccc(NC2CCSCC2)n1
A: 18.25
B: -12.87

structure: CCCC(NC(=O)c1occc1C)c1nnn[nH]1 (centres undefined)
A: -0.9711
B: 22.65

structure: O=C1CCC2(CCCN(C(=O)c3ccccn3)CC2)N1 (centres undefined)
A: -9.994
B: -23.56

structure: Cc1noc(C)c1CN1CC[C@@H]2O[C@H](COCC(C)C)CC[C@@H]21
A: -4.803
B: -24.26

structure: CN(C)C(=O)N1CC2(CCN(S(C)(=O)=O)CC2)c2ccccc21
A: -12.2
B: 9.372

structure: O=C(CCc1ccccn1)N1CCCC(N2CCNC2=O)C1 (centres undefined)
A: -9.138
B: -5.512

structure: CCOc1c(CNCCCn2ccnc2)cc(Cl)cc1OC
A: 4.729
B: -34.73

structure: O=C1N[C@H]2OCCC[C@H]2[C@H](c2ccc(C(=O)O)cc2)N1
A: 9.266
B: -13.62

structure: O=C(CSCC1CC1)N1CCCN(Cc2ccc(F)cc2)CC1
A: -13.55
B: -18.74

structure: CC(=O)N(C)c1nc(CN2CCCC2Cn2nc(C)cc2C)cs1 (centres undefined)
A: -11.06
B: -11.3

structure: Cc1nsc(C(=O)NCCc2cccs2)n1
A: -7.011
B: -9.705

structure: N#Cc1cc(Cl)ccc1N1CCOC(C(N)=O)C1 (centres undefined)
A: -11.4
B: 12.18

structure: O=C(Cc1ccc(F)cc1)N1CCn2cc(Cn3cccn3)nc2C1
A: -4.508
B: -20.42

structure: CN(C)Cc1cncc2c1CCN(Cc1ccoc1)C2
A: -25.04

structure: CC(C)N[C@@H]1CO[C@H](CNC(=O)c2ccccc2)[C@H]1O
A: -13.54
B: 11.82

structure: Cc1csc2c(C3CCN(CCOc4ccccc4F)CC3)nc(C)n12
A: -4.319
B: -13.78

structure: Cc1nc(CN2C[C@@H]3CN(C(=O)c4ccnnc4)C[C@@H]3C2=O)cs1
A: -0.8998
B: -15.96

Once more, the final 3:

- CC(C)N[C@@H]1CO[C@H](CNC(=O)c2ccccc2)[C@H]1O : A: -13.54%; B: 11.82%
- Cc1csc2c(C3CCN(CCOc4ccccc4F)CC3)nc(C)n12 : A: -4.319%; B: -13.78%
- Cc1nc(CN2C[C@@H]3CN(C(=O)c4ccnnc4)C[C@@H]3C2=O)cs1 : A: -0.8998%; B: -15.96%